Laboratory results: the supplement of paper PMC12823440, “Inhibitors supercharge kinase turnover through native proteolytic circuits” (Nature, 2025)
Where a name gives a salt, the structure may show the parent alone. The list shows a part of the results. Hit calls seldom repeat between salt and free forms of one compound.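 Kinases, fused to nanoluciferase, were expressed in K562 cells; luminescence was measured every 4 h from 2 to 18 h as percent of control (DMSO = 100%, positive control = 0%). A time point is decreased if signal falls significantly (2 sigma). Hits were called by the authors by a rule that is not shown; the count of time points alone does not decide it.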

Amino acid sequences for entries named in this document (tags omitted). A change or cut given only in a name is not applied to a line headed by its entry.
UniProt P41240: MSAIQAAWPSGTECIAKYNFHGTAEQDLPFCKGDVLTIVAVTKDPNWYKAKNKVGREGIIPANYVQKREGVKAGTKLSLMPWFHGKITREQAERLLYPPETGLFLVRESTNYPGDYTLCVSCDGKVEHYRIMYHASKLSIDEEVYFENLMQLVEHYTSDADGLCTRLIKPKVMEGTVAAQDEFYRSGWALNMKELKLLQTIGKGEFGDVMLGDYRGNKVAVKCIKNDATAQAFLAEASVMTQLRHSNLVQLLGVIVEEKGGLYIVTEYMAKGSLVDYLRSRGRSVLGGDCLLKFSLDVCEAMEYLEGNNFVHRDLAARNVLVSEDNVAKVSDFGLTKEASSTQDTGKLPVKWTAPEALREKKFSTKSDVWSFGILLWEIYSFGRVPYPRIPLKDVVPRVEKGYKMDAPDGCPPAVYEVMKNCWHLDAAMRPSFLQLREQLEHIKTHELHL

target: CSK (UniProt P41240); assay: number of time points (of 5) at which kinase-Nluc abundance scored as decreased, DMSO-normalised (count); higher = more persistent destabilization; conditions: K562; 2-18 h

Compound | number of time points
C[C@@H]1CCN(C(=O)CC#N)C[C@@H]1N(C)c1ncnc2[nH]ccc12 [Tofacitinib] (10 µM) | 0
CC#CC(=O)N1CC[C@@H](n2c(=O)n(-c3ccc(Oc4ccccc4)cc3)c3c(N)ncnc32)C1 [Tirabrutinib (hydrochloride)] (10 µM) | 0
Cc1ccc(C(=O)Nc2ccc(Oc3cc4cnn(C)c4cc3-c3cn[nH]c3)c(F)c2)c(=O)n1-c1ccc(F)cc1 [Merestinib] (2.5 µM) | 0
Cc1cc(Nc2ncnc3ccc(NC4=NC(C)(C)CO4)cc23)ccc1Oc1ccn2ncnc2c1 [Tucatinib (hemiethanolate)] (2.5 µM) | 0
C[C@@]1(c2ncncc2F)NC(=O)c2cc(-c3cn[nH]c3)ccc21 (10 µM) | 0
COc1cc(Nc2ncc(F)c(Nc3ccc4c(n3)NC(=O)C(C)(C)O4)n2)cc(OC)c1OC (10 µM) | 0
Cc1cc2ncc(-c3ccc(O)c(O)c3)nc2cc1C [Tyrphostin AG1433] (10 µM) | 0
C=CC(=O)Nc1cccc(Nc2nc(Nc3ccc(N4CCN(C(C)=O)CC4)cc3OC)ncc2C(F)(F)F)c1 [Rociletinib hydrobromide] (10 µM) | 0
Cc1cc(Nc2ncnc3ccc(NC4=NC(C)(C)CO4)cc23)ccc1Oc1ccn2ncnc2c1 [Tucatinib] (2.5 µM) | 0
CCc1cc2c(cc1N1CCC(N3CCOCC3)CC1)C(C)(C)c1[nH]c3cc(C#N)ccc3c1C2=O [Alectinib (Hydrochloride)] (2 µM) | 0
Cn1nccc1Nc1nccc(-c2ccn([C@H](CO)c3ccc(Cl)c(F)c3)c(=O)c2)n1 [Ravoxertinib hydrochloride] (10 µM) | 0
COc1cc2c(N3CCN(C(=O)Nc4ccc(OC(C)C)cc4)CC3)ncnc2cc1OCCCN1CCCCC1 [Tandutinib] (10 µM) | 0
CC#CC(=O)N1CC[C@@H](n2c(=O)n(-c3ccc(Oc4ccccc4)cc3)c3c(N)ncnc32)C1 [Tirabrutinib] (10 µM) | 0
C=CC(=O)Nc1cccc(Nc2nc(Nc3ccc(N4CCN(C(C)=O)CC4)cc3OC)ncc2C(F)(F)F)c1 [Rociletinib] (10 µM) | 0
COc1cc(Nc2ncc(F)c(Nc3ccc4c(n3)N(COP(=O)(O)O)C(=O)C(C)(C)O4)n2)cc(OC)c1OC [Fostamatinib Disodium] (10 µM) | 0
COc1cc2c(N3CCN(C(=O)Nc4ccc(OC(C)C)cc4)CC3)ncnc2cc1OCCCN1CCCCC1 [Tandutinib (hydrochloride)] (10 µM) | 0
COc1cc(Nc2ncc(F)c(Nc3ccc4c(n3)N(COP(=O)(O)O)C(=O)C(C)(C)O4)n2)cc(OC)c1OC [Fostamatinib (disodium hexahydrate)] (10 µM) | 0
COc1cc2nccc(Oc3ccc(NC(=O)NC4CC4)c(Cl)c3)c2cc1C(N)=O [Lenvatinib (mesylate)] (10 µM) | 0
Oc1ccc(Nc2nc(-c3ccc(Cl)cc3)cs2)cc1 (10 µM) | 0
NC(=O)c1nc(Nc2ccccc2)sc1NC(=O)C1CCCCC1 (10 µM) | 0
CC1=C(C(=O)O)N2C(=O)[C@@H](NC(=O)[C@H](N)C3=CCC=CC3)[C@H]2SC1 [Cephradine] (10 µM) | 0
Cc1ccc(C(=O)Nc2ccc(Oc3cc4cnn(C)c4cc3-c3cn[nH]c3)c(F)c2)c(=O)n1-c1ccc(F)cc1 [Merestinib dihydrochloride] (2.5 µM) | 0
Cc1ccc2nc(NCCN)c3ncc(C)n3c2c1 (2.5 µM) | 0
CC(=O)NC1CC(n2cnc(NC(=O)Cc3ccc4ccccc4c3)c2)C1 (stereo not drawn) (10 µM) | 0
COc1cc2nccc(Oc3ccc(NC(=O)NC4CC4)c(Cl)c3)c2cc1C(N)=O [Lenvatinib] (10 µM) | 0
Cn1cnc2c(F)c(Nc3ccc(Br)cc3Cl)c(C(=O)NOCCO)cc21 [Selumetinib (sulfate)] (10 µM) | 0
CCN1CCN(Cc2ccc(Nc3ncc(F)c(-c4cc(F)c5nc(C)n(C(C)C)c5c4)n3)nc2)CC1 [Abemaciclib] (2 µM) | 0
C[C@@H]1CCN(C(=O)CC#N)C[C@@H]1N(C)c1ncnc2[nH]ccc12 [Tofacitinib (citrate)] (10 µM) | 0

Another view of part of the listing above:
Compound,number of time points
C=CC(=O)Nc1cccc(Nc2nc(Nc3ccc(N4CCN(C(C)=O)CC4)cc3OC)ncc2C(F)(F)F)c1 [Rociletinib] (10 µM),0
Cc1ccc(C(=O)Nc2ccc(Oc3cc4cnn(C)c4cc3-c3cn[nH]c3)c(F)c2)c(=O)n1-c1ccc(F)cc1 [Merestinib dihydrochloride] (2.5 µM),0
